# Publication PMC12647759 (Scientific Reports, 2025)
# Amino acid sequences for entries named in this document (tags omitted). A change or cut given only in a name is not applied to a line headed by its entry.
# UniProt P51178, whole entry: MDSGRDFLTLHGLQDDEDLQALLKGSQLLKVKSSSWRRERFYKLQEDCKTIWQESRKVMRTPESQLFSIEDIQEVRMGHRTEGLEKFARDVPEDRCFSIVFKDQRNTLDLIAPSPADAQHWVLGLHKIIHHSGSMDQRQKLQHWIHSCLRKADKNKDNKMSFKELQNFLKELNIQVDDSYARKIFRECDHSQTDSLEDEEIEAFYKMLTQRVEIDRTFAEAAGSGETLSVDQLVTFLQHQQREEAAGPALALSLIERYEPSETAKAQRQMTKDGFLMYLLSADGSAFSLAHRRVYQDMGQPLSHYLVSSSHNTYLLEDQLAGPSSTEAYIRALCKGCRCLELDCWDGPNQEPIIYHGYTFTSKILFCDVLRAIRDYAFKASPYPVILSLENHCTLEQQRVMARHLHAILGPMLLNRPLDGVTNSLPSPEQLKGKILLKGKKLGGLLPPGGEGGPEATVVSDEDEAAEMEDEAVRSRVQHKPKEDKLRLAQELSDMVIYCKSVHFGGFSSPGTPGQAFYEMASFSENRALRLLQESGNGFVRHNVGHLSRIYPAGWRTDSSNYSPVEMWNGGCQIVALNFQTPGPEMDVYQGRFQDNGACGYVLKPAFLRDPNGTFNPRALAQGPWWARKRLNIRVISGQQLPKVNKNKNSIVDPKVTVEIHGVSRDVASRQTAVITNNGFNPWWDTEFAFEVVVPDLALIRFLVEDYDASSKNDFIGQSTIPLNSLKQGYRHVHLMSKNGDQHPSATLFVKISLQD
# UniProt Q9P212, whole entry: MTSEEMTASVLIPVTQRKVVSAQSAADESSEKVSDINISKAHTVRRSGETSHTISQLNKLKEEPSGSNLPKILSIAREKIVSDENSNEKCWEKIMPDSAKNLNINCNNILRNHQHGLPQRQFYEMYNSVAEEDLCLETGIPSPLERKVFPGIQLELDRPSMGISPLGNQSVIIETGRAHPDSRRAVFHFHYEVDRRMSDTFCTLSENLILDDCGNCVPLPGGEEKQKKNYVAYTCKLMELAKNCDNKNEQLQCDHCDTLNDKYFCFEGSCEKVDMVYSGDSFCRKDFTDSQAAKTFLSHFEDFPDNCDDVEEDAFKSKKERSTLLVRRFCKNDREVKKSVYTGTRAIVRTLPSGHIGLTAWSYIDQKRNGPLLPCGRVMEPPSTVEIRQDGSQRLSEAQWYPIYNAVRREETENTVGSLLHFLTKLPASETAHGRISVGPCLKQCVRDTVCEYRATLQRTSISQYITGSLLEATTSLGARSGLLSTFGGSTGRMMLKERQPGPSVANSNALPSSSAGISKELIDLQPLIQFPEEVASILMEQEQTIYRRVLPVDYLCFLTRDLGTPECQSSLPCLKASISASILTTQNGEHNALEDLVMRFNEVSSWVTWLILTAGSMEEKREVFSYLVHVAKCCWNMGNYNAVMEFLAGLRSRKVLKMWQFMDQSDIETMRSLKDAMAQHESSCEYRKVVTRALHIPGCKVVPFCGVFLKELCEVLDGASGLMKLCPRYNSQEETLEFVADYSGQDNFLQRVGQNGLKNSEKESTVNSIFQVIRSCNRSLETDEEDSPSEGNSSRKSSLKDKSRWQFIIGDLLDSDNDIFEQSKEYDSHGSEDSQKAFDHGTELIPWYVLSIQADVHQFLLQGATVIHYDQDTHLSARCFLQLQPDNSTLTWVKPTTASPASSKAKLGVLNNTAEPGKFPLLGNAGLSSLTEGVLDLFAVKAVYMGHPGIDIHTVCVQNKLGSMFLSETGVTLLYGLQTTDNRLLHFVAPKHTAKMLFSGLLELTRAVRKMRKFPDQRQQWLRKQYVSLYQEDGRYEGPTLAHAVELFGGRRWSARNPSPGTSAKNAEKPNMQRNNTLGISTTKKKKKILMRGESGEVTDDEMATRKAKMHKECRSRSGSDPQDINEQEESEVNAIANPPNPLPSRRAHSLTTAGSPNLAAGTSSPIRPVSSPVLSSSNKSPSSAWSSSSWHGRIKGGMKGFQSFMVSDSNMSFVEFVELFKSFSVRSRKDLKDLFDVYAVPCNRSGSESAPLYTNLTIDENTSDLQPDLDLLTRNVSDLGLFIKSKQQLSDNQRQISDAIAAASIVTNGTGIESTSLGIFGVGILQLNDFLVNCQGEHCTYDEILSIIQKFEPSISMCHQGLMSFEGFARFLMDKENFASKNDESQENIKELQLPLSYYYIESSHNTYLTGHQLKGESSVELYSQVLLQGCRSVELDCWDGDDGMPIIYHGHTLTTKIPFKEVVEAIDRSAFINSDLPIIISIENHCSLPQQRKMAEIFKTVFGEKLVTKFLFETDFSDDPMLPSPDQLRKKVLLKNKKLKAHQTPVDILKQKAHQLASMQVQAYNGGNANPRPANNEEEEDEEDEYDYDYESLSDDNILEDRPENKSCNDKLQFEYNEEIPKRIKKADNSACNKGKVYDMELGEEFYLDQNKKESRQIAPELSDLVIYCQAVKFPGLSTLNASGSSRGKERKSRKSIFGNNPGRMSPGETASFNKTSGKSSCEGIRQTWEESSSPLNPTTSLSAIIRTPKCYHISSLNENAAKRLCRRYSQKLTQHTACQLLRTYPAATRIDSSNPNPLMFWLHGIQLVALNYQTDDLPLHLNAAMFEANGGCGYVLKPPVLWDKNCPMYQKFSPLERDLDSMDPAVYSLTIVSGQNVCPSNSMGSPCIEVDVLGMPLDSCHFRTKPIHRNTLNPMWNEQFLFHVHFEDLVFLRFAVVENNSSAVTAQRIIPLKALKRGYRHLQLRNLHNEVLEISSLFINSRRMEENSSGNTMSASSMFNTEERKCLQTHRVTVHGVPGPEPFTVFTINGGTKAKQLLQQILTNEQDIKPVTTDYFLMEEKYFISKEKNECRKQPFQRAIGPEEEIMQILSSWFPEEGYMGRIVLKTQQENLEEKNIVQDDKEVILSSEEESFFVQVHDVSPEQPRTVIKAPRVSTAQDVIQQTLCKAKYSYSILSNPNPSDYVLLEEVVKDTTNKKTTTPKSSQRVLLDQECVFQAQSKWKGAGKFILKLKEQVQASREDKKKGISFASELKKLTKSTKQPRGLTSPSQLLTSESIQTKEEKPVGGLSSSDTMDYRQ
# UniProt P19174, whole entry: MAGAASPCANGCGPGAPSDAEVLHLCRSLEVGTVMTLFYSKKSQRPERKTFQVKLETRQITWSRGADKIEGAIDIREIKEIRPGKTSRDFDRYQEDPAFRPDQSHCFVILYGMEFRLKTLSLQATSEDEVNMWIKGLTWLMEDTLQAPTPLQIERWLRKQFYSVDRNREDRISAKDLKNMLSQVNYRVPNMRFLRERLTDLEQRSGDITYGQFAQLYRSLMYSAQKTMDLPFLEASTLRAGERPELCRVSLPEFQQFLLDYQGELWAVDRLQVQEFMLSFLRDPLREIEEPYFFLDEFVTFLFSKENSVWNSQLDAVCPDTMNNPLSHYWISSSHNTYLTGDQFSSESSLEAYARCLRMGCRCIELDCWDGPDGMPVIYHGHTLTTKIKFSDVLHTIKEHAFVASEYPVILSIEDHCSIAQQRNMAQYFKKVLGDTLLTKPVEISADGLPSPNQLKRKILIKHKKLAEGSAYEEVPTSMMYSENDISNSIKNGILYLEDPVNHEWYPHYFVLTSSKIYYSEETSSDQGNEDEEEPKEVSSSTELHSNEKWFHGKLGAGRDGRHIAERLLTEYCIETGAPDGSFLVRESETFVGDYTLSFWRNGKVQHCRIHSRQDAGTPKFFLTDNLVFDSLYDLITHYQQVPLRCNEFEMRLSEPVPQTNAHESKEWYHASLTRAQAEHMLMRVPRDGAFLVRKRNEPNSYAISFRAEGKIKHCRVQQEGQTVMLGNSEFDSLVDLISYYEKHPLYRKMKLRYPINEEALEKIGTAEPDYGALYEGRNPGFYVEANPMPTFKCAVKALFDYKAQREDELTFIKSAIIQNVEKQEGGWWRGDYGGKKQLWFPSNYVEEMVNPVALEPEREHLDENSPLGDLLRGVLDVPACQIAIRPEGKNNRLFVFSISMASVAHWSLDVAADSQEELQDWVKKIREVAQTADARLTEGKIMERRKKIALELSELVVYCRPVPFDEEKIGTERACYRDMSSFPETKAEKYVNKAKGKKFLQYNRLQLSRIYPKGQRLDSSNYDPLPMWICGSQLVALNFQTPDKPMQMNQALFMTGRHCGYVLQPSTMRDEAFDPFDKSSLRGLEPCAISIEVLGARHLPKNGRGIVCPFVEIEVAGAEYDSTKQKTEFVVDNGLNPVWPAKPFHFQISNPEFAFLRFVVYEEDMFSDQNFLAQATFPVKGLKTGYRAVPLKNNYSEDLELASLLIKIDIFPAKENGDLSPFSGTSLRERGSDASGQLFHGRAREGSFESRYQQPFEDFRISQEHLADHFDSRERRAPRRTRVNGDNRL
# UniProt Q15147, whole entry: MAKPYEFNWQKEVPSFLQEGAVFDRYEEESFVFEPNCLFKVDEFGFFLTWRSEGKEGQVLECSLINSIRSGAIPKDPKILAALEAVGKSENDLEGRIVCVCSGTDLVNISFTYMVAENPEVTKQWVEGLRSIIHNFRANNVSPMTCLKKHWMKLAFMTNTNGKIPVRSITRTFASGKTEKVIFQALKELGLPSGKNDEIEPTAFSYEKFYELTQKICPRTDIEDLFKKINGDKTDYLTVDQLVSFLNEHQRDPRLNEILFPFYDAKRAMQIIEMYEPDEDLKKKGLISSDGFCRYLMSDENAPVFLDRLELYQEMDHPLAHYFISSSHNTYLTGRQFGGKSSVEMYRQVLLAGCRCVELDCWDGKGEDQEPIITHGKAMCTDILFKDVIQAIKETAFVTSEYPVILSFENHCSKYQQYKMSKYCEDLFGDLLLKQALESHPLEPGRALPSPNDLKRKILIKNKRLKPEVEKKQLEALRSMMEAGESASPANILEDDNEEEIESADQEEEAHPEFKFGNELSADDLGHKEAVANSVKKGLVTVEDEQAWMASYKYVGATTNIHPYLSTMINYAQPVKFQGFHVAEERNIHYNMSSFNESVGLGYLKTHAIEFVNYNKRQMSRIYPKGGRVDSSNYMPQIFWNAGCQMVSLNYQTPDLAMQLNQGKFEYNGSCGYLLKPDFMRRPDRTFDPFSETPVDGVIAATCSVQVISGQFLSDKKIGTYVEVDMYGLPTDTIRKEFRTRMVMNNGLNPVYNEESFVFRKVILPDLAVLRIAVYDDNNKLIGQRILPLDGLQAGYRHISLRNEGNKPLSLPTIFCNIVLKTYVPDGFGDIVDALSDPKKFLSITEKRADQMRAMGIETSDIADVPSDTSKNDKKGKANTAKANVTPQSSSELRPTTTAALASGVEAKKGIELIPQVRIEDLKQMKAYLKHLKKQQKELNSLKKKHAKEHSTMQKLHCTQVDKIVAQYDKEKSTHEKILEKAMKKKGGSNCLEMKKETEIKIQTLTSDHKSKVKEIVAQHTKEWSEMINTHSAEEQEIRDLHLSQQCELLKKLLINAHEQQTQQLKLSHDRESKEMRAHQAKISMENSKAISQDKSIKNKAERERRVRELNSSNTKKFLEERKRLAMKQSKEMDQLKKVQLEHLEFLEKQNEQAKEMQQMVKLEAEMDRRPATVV
# pIC50: −log10 of the molar value. The match of structure and compound is tentative.
# Legend:
# human PLCδ1 = human PLCδ1 (Homo sapiens, UniProt P51178); assay: In vitro PLC assay using fluorogenic substrate Compound 1, PLCδ1; details: read-out: IC50, inhibition of PLCδ1 (hydrolysis of Compound 1); purified PLCδ1, fluorogenic substrate Compound 1
# human PLCε = human PLCε (Homo sapiens, UniProt Q9P212); assay: In vitro PLC assay using fluorogenic substrate Compound 1 (HTS), PLCε; details: read-out: IC50, inhibition of PLCε (hydrolysis of Compound 1), purified full-length PLCε
# human PLCγ1 = human PLCγ1 (Homo sapiens, UniProt P19174); assay: In vitro PLC assay using fluorogenic substrate Compound 1, PLCγ1; details: read-out: IC50, inhibition of PLCγ1 (hydrolysis of Compound 1); purified PLCγ1, fluorogenic substrate Compound 1
# human PLCβ4 = human PLCβ4 (Homo sapiens, UniProt Q15147); assay: In vitro PLC assay using fluorogenic substrate Compound 1, PLCβ4; details: read-out: IC50, inhibition of PLCβ4 (hydrolysis of Compound 1); purified PLCβ4, fluorogenic substrate Compound 1
compound,measurement,setting,value
"C[n+]1cc2c3c(ccc2c2ccc4cc5c(cc4c21)OCO5)OCO3 [Sanguinarine, sanguinarine]",pIC50,human PLCδ1,5.47
same,pIC50,human PLCε,5.54
same,pIC50,human PLCγ1,5.34
same,pIC50,human PLCβ4,5.41
